# Source: patent US20230149383A1, “QUINOLINE COMPOUNDS FOR TREATING LUNG, LIVER, AND KIDNEY DISEASES, DISORDERS, OR CONDITIONS” (Aldeyra Therapeutics, Inc., priority 2020, published 2023)
# Tested on: rat NAFLD model
# Test: 12-week choline deficient high fat diet rat study (NAFLD model)
# Assay type: in vivo
# Settings: 7 or 12 week period
# Source text: NAFLD is diagnosed in the US as 3 million new cases each year. NASH is included in the NAFLD diagnosis, as it is the easiest to ascertain in a subject. NAFLD activity score (NAS) is scored as 0-2 not diagnostic, 3-4 ranges from not diagnostic/borderline/positive NASH, and 5-8 diagnostic of NASH; the NAS scoring system includes a composite of […] semi-quantitative features: steatosis (0-3), lobular inflammation (0-2), hepatocellular ballooning (0-2), and fibrosis (0-4). To analyze the effect of compound I-1 on NAFLD, NAS was analyzed in rats treated with vehicle or various doses of compound I-1 (100 mg/kg, 125 mg/kg was compared to escalation 30/60/100 mg/kg and 50/75/100 mg/kg BID, respectively in animals fed a choline deficient, high fat diet for 7 weeks (vehicle vs. 100 mg/kg vs 30/60/100 mg/kg) and 12 weeks (vehicle vs. 125 mg/kg vs 50/75/100 mg/kg). Plasma was collected at 1, 2, 3, 6, 8, 10, and 12 weeks and tested for cytokines and ALT, AST, Triglycerides, Cholesterol, and tBilirubin (measures of liver function). At 12 weeks the livers were collected and gene expression studies, immunohistochemistry, and hydroxyproline.
smiles,measurement,value
CC(C)(O)c1nc2ccccc2cc1N [I-1],food intake,did not change
same,weight gain,did not change
